From US20120328616A1
These are yes or no findings as the source states them, for the method shown. Binding can be weak; no strength is given.

Columns and labels:
[1] = target: cynomologous monkey FGFR1c/cynomologous monkey β-Klotho (co-transfected) (cynomologous monkey); assay: flow cytometry, transfected HEK293T
[2] = target: human FGFR1c/human β-Klotho complex (FGF21 receptor) (human); assay: flow cytometry, transfected HEK293T

binding [1]: binds | binding [2]: binds
B1: 49G3.3 (antibody, V domains shown)
VH: QVTLKESGPVLVKPTETLTLTCTVSGFSLSNPRMGVSWIRQPPGKALEWLTHIFSNDEKSYSTSLKSRLTISKDTSKSQVVLSMTNMDPVDTATYYCVRVDTLNYHYYGMDVWGQGTTVTVSS
VL: DIQMTQSPSSLSASIGDRVTITCQASQGISNYLNWYQQKPGKAPKLLIYDASNLETGVPSRFSGSGSGTDFTFTISSLQPEDIATYYCHQYDDLPLTFGGGTKVEIRR
